According to the supplement of paper PMC12823440, “Inhibitors supercharge kinase turnover through native proteolytic circuits” (Nature, 2025):
Where a name gives a salt, the structure may show the parent alone. The list shows a part of the results. The calls rarely recur for the same compound in another form.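 Kinases were expressed as nanoluciferase fusions in K562 cells and luminescence was read every 4 h between 2 and 18 h as percent of control, DMSO set to 100% and a positive control to 0%. A time point counts as decreased when the signal drops significantly (2 sigma). The hit call is the authors' own, does not follow from the count of time points alone, and its rule is not shown.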

Amino acid sequences for entries named in this document (tags omitted). A change or cut given only in a name is not applied to a line headed by its entry.
UniProt P21860, whole entry: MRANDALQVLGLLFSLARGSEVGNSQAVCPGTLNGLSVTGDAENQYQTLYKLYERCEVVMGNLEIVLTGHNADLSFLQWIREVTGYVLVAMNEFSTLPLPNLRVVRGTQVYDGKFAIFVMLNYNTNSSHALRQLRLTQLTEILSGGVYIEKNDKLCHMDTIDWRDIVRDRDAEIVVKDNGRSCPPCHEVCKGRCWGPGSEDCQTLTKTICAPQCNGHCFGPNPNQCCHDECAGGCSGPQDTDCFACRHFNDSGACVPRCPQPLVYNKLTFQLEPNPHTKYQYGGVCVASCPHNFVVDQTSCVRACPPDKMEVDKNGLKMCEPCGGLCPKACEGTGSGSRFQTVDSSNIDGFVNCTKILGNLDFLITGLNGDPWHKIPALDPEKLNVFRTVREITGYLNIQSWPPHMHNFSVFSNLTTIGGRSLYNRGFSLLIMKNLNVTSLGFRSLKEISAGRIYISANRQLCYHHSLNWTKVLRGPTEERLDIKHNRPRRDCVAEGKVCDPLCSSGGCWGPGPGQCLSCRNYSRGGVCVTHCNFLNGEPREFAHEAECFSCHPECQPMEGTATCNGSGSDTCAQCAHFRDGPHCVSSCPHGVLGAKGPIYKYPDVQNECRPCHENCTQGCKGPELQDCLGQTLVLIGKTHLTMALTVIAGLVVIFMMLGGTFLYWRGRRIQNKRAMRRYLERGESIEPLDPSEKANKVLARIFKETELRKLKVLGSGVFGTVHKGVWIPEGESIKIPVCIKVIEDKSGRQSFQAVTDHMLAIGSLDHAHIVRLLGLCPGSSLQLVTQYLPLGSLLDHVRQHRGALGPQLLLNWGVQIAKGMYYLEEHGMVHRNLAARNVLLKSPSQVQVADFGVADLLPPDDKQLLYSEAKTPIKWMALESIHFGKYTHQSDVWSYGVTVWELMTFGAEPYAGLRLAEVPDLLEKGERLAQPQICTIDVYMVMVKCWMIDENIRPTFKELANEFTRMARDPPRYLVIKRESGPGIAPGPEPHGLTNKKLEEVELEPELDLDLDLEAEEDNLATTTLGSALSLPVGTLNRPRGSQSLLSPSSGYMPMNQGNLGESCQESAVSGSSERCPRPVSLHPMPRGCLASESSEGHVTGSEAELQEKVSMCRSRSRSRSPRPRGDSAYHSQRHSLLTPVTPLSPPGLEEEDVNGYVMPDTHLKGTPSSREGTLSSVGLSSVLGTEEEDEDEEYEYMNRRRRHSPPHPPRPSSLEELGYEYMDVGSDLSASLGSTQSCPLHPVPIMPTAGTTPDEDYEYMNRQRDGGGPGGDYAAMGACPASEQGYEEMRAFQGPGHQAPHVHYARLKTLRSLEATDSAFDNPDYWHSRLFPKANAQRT
UniProt O75460: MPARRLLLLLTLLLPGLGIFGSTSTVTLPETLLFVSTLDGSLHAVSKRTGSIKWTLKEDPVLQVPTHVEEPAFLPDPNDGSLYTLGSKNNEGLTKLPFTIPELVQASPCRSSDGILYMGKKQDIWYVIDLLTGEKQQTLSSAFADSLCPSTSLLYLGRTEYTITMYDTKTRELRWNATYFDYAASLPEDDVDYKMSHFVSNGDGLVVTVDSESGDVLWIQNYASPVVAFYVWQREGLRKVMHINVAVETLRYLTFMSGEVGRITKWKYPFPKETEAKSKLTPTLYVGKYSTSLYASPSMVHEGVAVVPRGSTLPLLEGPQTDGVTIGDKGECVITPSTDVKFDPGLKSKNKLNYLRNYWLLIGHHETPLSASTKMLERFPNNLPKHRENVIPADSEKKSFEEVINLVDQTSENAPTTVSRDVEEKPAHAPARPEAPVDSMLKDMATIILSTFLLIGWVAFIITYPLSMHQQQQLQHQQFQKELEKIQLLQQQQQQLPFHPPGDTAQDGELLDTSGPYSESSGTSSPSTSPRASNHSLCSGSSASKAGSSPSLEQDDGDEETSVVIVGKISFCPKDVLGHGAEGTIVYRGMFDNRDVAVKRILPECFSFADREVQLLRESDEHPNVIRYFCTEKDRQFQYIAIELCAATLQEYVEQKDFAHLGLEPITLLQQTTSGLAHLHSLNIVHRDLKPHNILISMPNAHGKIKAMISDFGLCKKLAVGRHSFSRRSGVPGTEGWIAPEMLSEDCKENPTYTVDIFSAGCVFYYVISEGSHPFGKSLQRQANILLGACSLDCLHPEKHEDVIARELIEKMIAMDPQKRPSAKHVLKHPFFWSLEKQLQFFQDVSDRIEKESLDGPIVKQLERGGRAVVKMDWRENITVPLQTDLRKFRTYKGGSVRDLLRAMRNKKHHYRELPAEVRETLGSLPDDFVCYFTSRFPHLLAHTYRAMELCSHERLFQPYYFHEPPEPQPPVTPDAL
UniProt P21802, whole entry, looked up: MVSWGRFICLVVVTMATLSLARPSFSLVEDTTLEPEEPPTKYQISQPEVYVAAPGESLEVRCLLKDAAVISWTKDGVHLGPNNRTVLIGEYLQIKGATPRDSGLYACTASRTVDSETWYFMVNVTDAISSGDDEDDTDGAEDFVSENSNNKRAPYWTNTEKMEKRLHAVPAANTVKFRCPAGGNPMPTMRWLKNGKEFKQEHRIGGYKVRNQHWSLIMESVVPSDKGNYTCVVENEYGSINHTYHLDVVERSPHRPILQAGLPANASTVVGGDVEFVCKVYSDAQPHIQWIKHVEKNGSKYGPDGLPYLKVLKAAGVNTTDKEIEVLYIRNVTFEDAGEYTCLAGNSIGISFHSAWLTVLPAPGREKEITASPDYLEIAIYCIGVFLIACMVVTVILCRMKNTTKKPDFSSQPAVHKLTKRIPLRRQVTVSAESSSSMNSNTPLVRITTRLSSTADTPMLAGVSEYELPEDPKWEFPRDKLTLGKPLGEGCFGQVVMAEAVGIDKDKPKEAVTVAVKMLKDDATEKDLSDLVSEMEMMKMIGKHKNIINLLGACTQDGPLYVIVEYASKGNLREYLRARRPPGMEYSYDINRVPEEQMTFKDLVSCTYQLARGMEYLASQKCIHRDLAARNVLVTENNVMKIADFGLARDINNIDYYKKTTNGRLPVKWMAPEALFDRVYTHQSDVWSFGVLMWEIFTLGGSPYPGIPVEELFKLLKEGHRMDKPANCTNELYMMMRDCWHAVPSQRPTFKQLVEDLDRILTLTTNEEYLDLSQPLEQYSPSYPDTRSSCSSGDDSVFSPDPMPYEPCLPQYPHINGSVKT
UniProt P06241, whole entry, looked up: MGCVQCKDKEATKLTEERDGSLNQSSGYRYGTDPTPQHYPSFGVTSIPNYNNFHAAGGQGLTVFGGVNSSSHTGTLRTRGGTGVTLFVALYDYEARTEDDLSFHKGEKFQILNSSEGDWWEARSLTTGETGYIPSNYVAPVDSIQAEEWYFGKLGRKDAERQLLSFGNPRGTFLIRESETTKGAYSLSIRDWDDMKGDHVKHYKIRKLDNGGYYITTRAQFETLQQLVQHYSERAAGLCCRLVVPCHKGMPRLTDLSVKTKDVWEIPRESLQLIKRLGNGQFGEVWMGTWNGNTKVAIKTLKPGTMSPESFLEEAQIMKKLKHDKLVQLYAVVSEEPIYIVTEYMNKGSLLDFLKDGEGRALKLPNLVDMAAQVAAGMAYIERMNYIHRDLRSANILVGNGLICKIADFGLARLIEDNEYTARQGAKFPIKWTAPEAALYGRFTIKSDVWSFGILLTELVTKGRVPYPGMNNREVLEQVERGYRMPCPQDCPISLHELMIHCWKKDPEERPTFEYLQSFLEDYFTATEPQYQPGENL
UniProt P14616: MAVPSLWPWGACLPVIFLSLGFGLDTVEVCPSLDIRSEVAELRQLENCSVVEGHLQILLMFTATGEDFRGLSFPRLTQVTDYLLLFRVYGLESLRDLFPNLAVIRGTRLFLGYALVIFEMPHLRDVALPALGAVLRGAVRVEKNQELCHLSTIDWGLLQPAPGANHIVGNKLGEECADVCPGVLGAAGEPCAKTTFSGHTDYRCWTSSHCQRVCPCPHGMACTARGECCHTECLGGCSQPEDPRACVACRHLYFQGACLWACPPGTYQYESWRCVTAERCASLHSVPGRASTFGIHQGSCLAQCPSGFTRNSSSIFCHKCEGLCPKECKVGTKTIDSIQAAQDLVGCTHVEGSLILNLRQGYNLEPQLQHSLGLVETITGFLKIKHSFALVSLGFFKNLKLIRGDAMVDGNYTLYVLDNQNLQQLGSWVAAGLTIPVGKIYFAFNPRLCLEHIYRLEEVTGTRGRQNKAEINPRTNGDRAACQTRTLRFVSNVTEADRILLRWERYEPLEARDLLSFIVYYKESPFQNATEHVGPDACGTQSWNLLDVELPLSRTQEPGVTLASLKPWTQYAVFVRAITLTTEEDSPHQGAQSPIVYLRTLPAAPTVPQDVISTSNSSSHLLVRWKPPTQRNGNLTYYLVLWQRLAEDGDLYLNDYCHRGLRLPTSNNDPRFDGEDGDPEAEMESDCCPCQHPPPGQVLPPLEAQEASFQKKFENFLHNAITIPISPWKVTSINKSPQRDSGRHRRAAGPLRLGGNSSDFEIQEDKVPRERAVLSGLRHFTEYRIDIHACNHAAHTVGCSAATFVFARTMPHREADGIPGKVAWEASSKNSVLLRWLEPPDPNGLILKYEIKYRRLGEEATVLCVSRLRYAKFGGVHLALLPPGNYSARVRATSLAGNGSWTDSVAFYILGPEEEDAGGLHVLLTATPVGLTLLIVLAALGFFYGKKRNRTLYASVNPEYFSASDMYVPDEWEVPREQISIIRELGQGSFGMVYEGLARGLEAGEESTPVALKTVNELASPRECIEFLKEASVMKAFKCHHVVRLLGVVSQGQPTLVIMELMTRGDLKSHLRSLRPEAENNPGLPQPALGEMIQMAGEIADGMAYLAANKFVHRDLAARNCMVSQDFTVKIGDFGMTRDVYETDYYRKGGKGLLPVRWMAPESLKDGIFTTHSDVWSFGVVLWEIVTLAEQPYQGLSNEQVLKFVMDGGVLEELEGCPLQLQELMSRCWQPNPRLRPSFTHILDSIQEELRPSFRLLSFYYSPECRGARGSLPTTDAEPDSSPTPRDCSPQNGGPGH
UniProt Q9Y616: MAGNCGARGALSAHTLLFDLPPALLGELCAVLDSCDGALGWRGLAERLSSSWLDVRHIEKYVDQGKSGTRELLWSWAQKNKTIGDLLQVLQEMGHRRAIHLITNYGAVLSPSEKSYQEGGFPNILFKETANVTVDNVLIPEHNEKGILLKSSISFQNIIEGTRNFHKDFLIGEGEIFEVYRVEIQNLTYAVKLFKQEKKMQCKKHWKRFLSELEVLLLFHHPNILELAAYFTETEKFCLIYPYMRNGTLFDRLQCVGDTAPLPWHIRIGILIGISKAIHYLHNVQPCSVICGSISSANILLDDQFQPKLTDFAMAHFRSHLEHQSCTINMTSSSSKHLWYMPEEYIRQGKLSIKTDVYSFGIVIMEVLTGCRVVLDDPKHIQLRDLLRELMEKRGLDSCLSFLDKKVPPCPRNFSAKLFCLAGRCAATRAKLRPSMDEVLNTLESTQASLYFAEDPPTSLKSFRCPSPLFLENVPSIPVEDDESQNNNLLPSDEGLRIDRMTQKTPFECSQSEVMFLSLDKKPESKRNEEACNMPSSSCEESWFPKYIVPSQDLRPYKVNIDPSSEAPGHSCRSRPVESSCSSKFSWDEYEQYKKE
UniProt P53671: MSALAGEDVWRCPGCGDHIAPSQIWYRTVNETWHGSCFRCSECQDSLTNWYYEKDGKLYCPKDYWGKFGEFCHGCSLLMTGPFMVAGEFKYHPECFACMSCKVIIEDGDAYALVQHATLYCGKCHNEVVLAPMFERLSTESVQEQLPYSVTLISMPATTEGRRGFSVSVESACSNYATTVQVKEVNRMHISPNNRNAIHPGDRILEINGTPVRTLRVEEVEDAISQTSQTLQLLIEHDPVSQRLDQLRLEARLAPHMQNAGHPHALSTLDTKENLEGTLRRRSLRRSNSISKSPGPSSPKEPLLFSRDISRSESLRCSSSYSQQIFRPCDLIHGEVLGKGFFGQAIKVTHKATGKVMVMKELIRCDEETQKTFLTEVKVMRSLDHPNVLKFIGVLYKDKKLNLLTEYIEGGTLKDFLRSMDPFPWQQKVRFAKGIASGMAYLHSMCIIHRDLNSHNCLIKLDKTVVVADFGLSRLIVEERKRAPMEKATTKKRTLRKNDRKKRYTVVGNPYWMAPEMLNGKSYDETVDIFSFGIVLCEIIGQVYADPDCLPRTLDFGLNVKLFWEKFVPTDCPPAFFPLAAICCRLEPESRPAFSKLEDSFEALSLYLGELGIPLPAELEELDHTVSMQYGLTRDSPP

Legend:
Test in all cases: number of time points (of 5) at which kinase-Nluc abundance scored as decreased, DMSO-normalised (count); higher = more persistent destabilization
Conditions in all cases: K562; 2-18 h
EGFR_L861Q = EGFR_L861Q (UniProt P00533)
EGFR_T790M = EGFR_T790M (UniProt P00533)
EPHA2 = EPHA2 (UniProt P29317)
ERBB3 = ERBB3 (UniProt P21860)
[1] = molecular target: ERBB4_R711C (clone: ERBB4_mut) (UniProt Q15303)
ERN1 = ERN1 (UniProt O75460)
FGFR1 = FGFR1 (UniProt P11362)
FGFR2 = FGFR2 (UniProt P21802)
FGFR3 = FGFR3 (UniProt P22607)
FGR = FGR (UniProt P09769)
FLT3 = FLT3 (UniProt P36888)
FYN = FYN (UniProt P06241)
GSK3A = GSK3A (UniProt P49840)
HER2 = HER2 (UniProt P04626)
INSRR = INSRR (UniProt P14616)
IRAK3 = IRAK3 (UniProt Q9Y616)
JAK1 = JAK1 (UniProt P23458)
LCK = LCK (UniProt P06239)
LIMK1 = LIMK1 (UniProt P53667)
LIMK2 = LIMK2 (UniProt P53671)

| SMILES | number of time points (EGFR_L861Q) | number of time points (EGFR_T790M) | number of time points (EPHA2) | number of time points (ERBB3) | number of time points [1] | number of time points (ERN1) | number of time points (FGFR1) | number of time points (FGFR2) | number of time points (FGFR3) | number of time points (FGR) | number of time points (FLT3) | number of time points (FYN) | number of time points (GSK3A) | number of time points (HER2) | number of time points (INSRR) | number of time points (IRAK3) | number of time points (JAK1) | number of time points (LCK) | number of time points (LIMK1) | number of time points (LIMK2) |
| --- | --- | --- | --- | --- | --- | --- | --- | --- | --- | --- | --- | --- | --- | --- | --- | --- | --- | --- | --- | --- |
| C=CC(=O)N[C@H]1C=C(C)c2c(-c3cnc4ccccc4c3)c3c(N)ncnc3n2C1 (10 µM) | 0 | 0 | 0 | 0 | 0 | 0 | 0 | 0 | 0 | 0 | 0 | 0 | 0 | 0 | 0 | 0 | 0 | 0 | 0 | 0 |
| COc1cc2c(cc1F)C(c1ccccc1Cl)=Nc1c(n[nH]c1C)N2 (0.5 µM) | – | – | 0 | 0 | 0 | 0 | 0 | 0 | 0 | 0 | 0 | 0 | 0 | 0 | 0 | 0 | 0 | 0 | 0 | 0 |
| CCCCNc1nc(N)c2[nH]c(=O)n(Cc3ccc(C)nc3)c2n1 (10 µM) | 0 | 0 | 0 | 0 | 0 | 0 | 0 | 0 | 0 | 0 | 0 | 0 | 0 | 1 | 0 | 0 | 0 | 0 | 0 | 0 |
| CCCCCCCCCCCCCCCCOC[C@H](COP(=O)([O-])OCC[N+](C)(C)C)OC(C)=O (10 µM) | 0 | 0 | 0 | 0 | 0 | 0 | 0 | 0 | 0 | 0 | 0 | 0 | 0 | 0 | 0 | 0 | 0 | 0 | 0 | 0 |
| CCN1CCN(C(=O)Cc2ccc(Nc3ncc(F)c(Nc4ccc(C(=O)Nc5ccccc5Cl)cc4)n3)cc2)CC1 (2.5 µM) | 0 | 0 | 0 | 0 | 0 | 0 | 0 | 0 | 0 | 0 | 0 | 0 | 0 | 0 | 0 | 0 | 0 | 0 | 0 | 0 |
| O=C1c2ccccc2C(=O)c2c1cccc2-c1cnn(C2CCNCC2)c1 [PDK4-IN-1 (hydrochloride)] (10 µM) | 0 | 0 | 0 | 0 | 0 | 0 | 0 | 0 | 0 | 0 | 0 | 0 | 0 | 0 | 0 | 0 | 0 | 0 | 2 | 0 |
| C=C[C@H]1CN2CC[C@]3(C(=O)Nc4ccccc43)[C@@H]2C[C@@H]1/C(=C\OC)C(=O)OC [Corynoxeine] (2 µM) | 0 | 0 | 0 | 0 | 0 | 0 | 0 | 0 | 0 | 0 | 0 | 0 | 0 | 0 | 0 | 0 | 0 | 0 | 0 | 0 |
| O=Cc1cn(Cc2ccc(Cl)cc2)c2ccccc12 [Oncrasin-1] (10 µM) | 0 | 0 | 0 | 0 | 0 | 0 | 0 | 0 | 0 | 0 | 0 | 0 | 0 | 0 | 0 | 0 | 0 | 0 | 0 | 0 |
| COc1ccc2c(c1)[nH]c1c(C)nccc12 [Harmine] (10 µM) | 0 | 0 | 0 | 0 | 0 | 0 | 0 | 0 | 0 | 0 | 0 | 0 | 0 | 0 | 0 | 0 | 0 | 0 | 0 | 0 |
| C[C@H]1CC[C@]2(NC1)O[C@H]1C[C@H]3[C@@H]4CC[C@H]5C[C@@H](O)CC[C@]5(C)[C@H]4CC[C@]3(C)[C@H]1[C@@H]2C [Tomatidine] (2 µM) | 0 | 0 | 0 | 0 | 0 | 0 | 0 | 0 | 0 | 0 | 0 | 0 | 0 | 0 | 0 | 0 | 0 | 0 | 0 | 0 |
| N#CC(C#N)=Cc1ccc([N+](=O)[O-])c(O)c1 (10 µM) | 0 | 0 | 0 | 0 | 0 | 0 | 0 | 0 | 0 | 0 | 0 | 0 | 0 | 0 | 0 | 0 | 0 | 0 | 0 | 0 |
